# In PubChem BioAssay AID504467 (National Center for Advancing Translational Sciences (NCATS), 2011):
# Among all 330,000 compounds or so, about 7,700 (2.3%) were called active. Inconclusive means that the source gave no clear call. Such entries were picked first, then a sample of the others. Calls come from the whole dose curve; as a rule, active = well fitted inhibition curve with a large enough effect; inconclusive = small, poorly fitted or top-dose-only effect, or effect the other way; inactive = flat fitted curve, though single readings scatter. A potency beside an inconclusive call is a rough fit, not a confirmed value.
# Test: qHTS screen for small molecules that inhibit ELG1-dependent DNA repair in human embryonic kidney (HEK293T) cells expressing luciferase-tagged ELG1; note: nearly all actives have a fitted effect of over 55% in size
# Details: HEK293T ELG1-luciferase reporter, luminescence, 16 h, DNA damage induced by 5-fluorouridine; series mostly up to 46.1 µM
# Method in brief: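 Step one: seed 2,000 cells per well. Step two: pin-transfer compound or DMSO alongside 5-fluorouridine. Step three: incubate 16 hr, 37 °C, 5% CO2. Step four: add ONE-Glo, wait 30 min, read luminescence.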
# Potency is the fitted concentration of half-maximal effect.
row,SMILES,Potency
1,CCCS(=O)(=O)N1CCCC(C(=O)NC2CCCC(C)C2C)C1 (stereo unspecified),"inconclusive: 16.4 µM [activator, partial curve, poor fit]"
2,O=c1sc2ccccc2c(N2CCCC2)c1[N+](=O)[O-],"inconclusive: 18.3 µM [inhibitor, single point]"
3,C/C(CC(=O)Nc1ccccn1)=N\NC(=O)C(=O)Nc1cccc(C)c1,inactive
4,O=C(Nc1ccccc1Cl)Nc1cccnc1Cl,"inconclusive: 14.6 µM [inhibitor, partial curve, poor fit]"
5,Cc1cccc(C(=O)NCC2CCN(C(=O)c3cccc(C)c3)CC2)c1,"inconclusive: 32.6 µM [inhibitor, partial curve, poor fit]"
6,O=C(NCCN1CCOCC1)c1sc2ccccc2c1Cl,"inconclusive: 16.4 µM [activator, partial curve]"
7,Cc1ccc(C(=O)Nc2ccc(C)c(S(=O)(=O)N(C)C)c2)s1,"inconclusive: 3.26 µM [activator, partial curve]"
8,Cc1ccc(C23CC4CC(CC(NC(=O)N5CCN(C)CC5)(C4)C2)C3)cc1,inactive
9,Cc1cc(C)n2[nH]c(=O)c(N=Nc3ccccc3)c2n1,inactive
10,COc1cccc(CC(=O)n2nc(N)c3cc4ccc(OC)cc4nc32)c1,active: 9.2 µM
11,CSc1nsc(SCC(=O)Nc2ccccc2F)n1,"inconclusive: 23.1 µM [activator, partial curve]"
12,COc1ccccc1N1CCN(C(=O)c2ccc(Cn3c(=S)[nH]c4cc5c(cc4c3=O)OCO5)cc2)CC1,inactive
13,CN(C)c1ccnc(Oc2ccc(C(C)(C)C)cc2)c1C#N,"inconclusive: 23.1 µM [activator, single point]"
14,Cc1ccc(C(=O)c2coc3ccc(O)cc23)cc1,"inconclusive: 6.51 µM [activator, partial curve]"
15,CC(=O)C1=NN(c2ccccc2)C(c2cccs2)N1c1ccccc1 (stereo unspecified),"inconclusive: 29.1 µM [inhibitor, single point]"
16,O=C1N=C(N2CCCCC2)S/C1=C\c1ccccc1F,"inconclusive: 1.58 µM [activator, single point]"
17,COc1ccccc1OCCn1nnc2ccccc21,"inconclusive: 11.2 µM [activator, partial curve, poor fit]"
18,Brc1cccc(OCCCNC2CCCC2)c1,inactive
19,CCCCOc1cccc(C(=O)N(Cc2ccco2)C2CCS(=O)(=O)C2)c1 (stereo unspecified),"inconclusive: 20.6 µM [inhibitor, partial curve, poor fit]"
20,COc1ccc(C(=O)Nc2ccnc(-c3cccnc3)n2)cc1,"inconclusive: 10.3 µM [activator, partial curve, poor fit]"
21,c1cc2c(cc1Nc1nc(-c3ccc4c(c3)OCO4)cs1)OCCO2,"inconclusive: 4.11 µM [activator, full curve]"
22,COc1cccc(OCc2nnc(-c3cccs3)o2)c1,"inconclusive: 20.6 µM [activator, partial curve]"
23,c1ccc(CSc2ncn(-c3ccccc3)n2)cc1,"inconclusive: 6.51 µM [activator, partial curve]"

# Some of the entries so far, with tabs:
row	SMILES	Potency
18	Brc1cccc(OCCCNC2CCCC2)c1	inactive
19	CCCCOc1cccc(C(=O)N(Cc2ccco2)C2CCS(=O)(=O)C2)c1 (stereo unspecified)	inconclusive: 20.6 µM [inhibitor, partial curve, poor fit]
20	COc1ccc(C(=O)Nc2ccnc(-c3cccnc3)n2)cc1	inconclusive: 10.3 µM [activator, partial curve, poor fit]

# The list goes on:

row,SMILES,Potency
1,Cc1cc(C)cc(N2C(=O)c3nccnc3C2=O)c1,inactive
2,O=C(NCCC1=CCCCC1)C1CCC(CNc2c(N3CCCCC3)c(=O)c2=O)CC1 (stereo unspecified),"inconclusive: 7.3 µM [inhibitor, partial curve, poor fit]"
3,CCOc1ccc(C(C)=O)cc1N1C(=O)C2C3C=CC(C3=C(C)C)C2C1=O (stereo unspecified),"inconclusive: 1.16 µM [inhibitor, single point]"
4,C=CCSc1nnc2nc3c(nn12)c1cc(C)ccc1n3CC=C,inactive
5,CC(C)(C)CC(=O)NCc1cccs1,inactive
6,Oc1ccc(-c2nnc(Nc3ccccc3)c3ccccc23)cc1,"inconclusive: 1.16 µM [inhibitor, full curve]"
7,COC(=O)CCn1c(C)cc(C(=O)COc2ccccc2C(N)=O)c1C,inactive
8,Cc1cnc(C(=O)Nc2ccc(F)c(F)c2)cn1,"inconclusive: 20.6 µM [activator, partial curve]"
9,CCCCNC(=O)C1Cc2cc(S(=O)(=O)N3CCCCC3)ccc2N1C(C)=O (stereo unspecified),inactive
10,CCN(c1ccccc1)S(=O)(=O)c1ccc2c(c1)N(C(C)=O)CCO2,inactive
11,COc1ccccc1C(=O)Nc1ccc(C(=O)c2ccccc2)cc1,"inconclusive: 0.0052 µM [inhibitor, full curve, poor fit]"
12,CCCCOCCCNC(=O)c1ccc2c(c1)OCO2,"inconclusive: 23.1 µM [activator, partial curve, poor fit]"
13,COc1ccc(NC(=O)/C=C/c2ccc(OC(F)F)cc2)cn1,"inconclusive: 29.1 µM [inhibitor, single point]"
14,CC(=O)CCC(=O)N1CCCC(N2CCN(c3cccc(Cl)c3)CC2)C1 (stereo unspecified),inactive
15,c1n[nH]c(SCCCCSc2ncn[nH]2)n1,"inconclusive: 25.9 µM [activator, partial curve, poor fit]"
16,Oc1c(C(Nc2nccs2)c2ccc(C(F)(F)F)cc2)ccc2cccnc12 (stereo unspecified),active: 2.59 µM
17,CCC(=O)Nc1cc(-c2nn(C)c(=O)c3ccccc23)ccc1N1CCCCC1,"inconclusive: 18.4 µM [inhibitor, single point]"
18,CCN(CC(=O)Nc1ccc2c(c1)OCCO2)C(=O)/C=C/c1ccc(F)cc1,"inconclusive: 20.6 µM [activator, partial curve]"
19,COc1ccc(N2CCN(C(=O)C3CCCN(S(=O)(=O)c4ccc(F)cc4)C3)CC2)cc1 (stereo unspecified),"inconclusive: 18.3 µM [inhibitor, partial curve, poor fit]"
20,CC(C)(C)NC(=O)NC(=O)COC(=O)Cc1c(Cl)cccc1Cl,inactive
21,CN(C)c1ccc(/C=N/Nc2nc3ccccc3o2)cc1,"inconclusive: 0.58 µM [activator, partial curve]"
22,COc1ccc(C(CNC(=O)c2nn(-c3ccccc3)c(=O)c3ccccc23)N2CCOCC2)cc1 (stereo unspecified),"inconclusive: 20.6 µM [inhibitor, partial curve, poor fit]"
23,CC(=O)c1nccs1,inactive
